Data reported in PMC3608566.

By UniProt entry, the sequences of proteins in these tests, tags left out. Residues count along the entry.
UniProt P09874, 2-1014: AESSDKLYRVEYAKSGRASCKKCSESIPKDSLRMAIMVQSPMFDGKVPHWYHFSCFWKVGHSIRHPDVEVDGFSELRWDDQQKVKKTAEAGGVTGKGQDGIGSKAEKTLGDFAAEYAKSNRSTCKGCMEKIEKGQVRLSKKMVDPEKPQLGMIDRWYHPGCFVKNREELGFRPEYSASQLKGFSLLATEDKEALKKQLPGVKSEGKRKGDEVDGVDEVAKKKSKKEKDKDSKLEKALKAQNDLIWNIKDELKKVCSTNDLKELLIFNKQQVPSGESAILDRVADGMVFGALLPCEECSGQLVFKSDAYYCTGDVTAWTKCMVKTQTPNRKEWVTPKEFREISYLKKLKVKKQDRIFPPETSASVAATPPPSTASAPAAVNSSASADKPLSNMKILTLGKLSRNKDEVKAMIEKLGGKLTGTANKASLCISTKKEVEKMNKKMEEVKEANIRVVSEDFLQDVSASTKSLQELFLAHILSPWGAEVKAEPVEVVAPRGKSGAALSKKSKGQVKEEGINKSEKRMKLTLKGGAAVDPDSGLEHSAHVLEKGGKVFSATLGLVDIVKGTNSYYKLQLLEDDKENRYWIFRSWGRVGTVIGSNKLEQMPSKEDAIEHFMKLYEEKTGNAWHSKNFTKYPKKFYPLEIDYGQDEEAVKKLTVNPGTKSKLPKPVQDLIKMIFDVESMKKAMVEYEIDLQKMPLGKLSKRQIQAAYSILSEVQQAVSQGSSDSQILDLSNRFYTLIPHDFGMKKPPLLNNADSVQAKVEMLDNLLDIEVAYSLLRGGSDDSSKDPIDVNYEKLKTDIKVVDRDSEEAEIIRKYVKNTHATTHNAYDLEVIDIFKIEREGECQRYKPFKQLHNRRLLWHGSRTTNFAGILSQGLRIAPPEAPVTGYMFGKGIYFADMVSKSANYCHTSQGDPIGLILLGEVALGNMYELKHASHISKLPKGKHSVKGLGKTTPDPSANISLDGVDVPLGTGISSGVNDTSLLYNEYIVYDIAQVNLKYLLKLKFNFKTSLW

Target: recombinant PARP-1 (non-automodified) (UniProt P09874)
Assay: EMSA
Details: 100 ng PARP-1, 100 ng DNA, 1 ug poly(dIdC), 5' biotin on both ends (streptavidin-alkaline phosphatase conjugated), 50 mM Tris-HCl pH 7.5, 250 mM NaCl, 6.25 mM MgCl2, 2.5 mM EDTA, 2.5 mM DTT, 10% glycerol, 37 C 30 min, 1% agarose gel in 1x TBE, commercial protein, label: biotin, probe letters rebuilt from the primers and the genome

**Q.** Does “ACAGAGCTGCGAGCCTTGCCCGGGACCGGGCGCAGATTACACTCACCGTCACTGATGCAGAGCGCGGCCAGCACCAGGGCCAGCACGGCGACGACCTTGGCGTCCATGGCGTGGGCGGGAGGGCGCGCCGGAGGCTGCAGAGCTGGGCAGCAAGAGGACACCGAGGTGGACGGAGAGTGAAAGTGCGGCAGCTAGAGGCGCGCGCTGGGCGCTTTAGAGCCGAAAACCAGGCGGGGCGGGGCTCGTCAAGGGGCGTGTCTGAAGTGTGGCTGGGGTCTCTGACGCGCATCCCCTGCGGAGCAGCCGCCCTTCCAGTCCCCTACCTACCCACCCCCTTCTTGGCGCCCTCGGCGTCCCCGGCTCCGCTGGGTGCCGAGGCCTTTGATCTTCCCAGTCCCCAACTTGGGCGGGCTCCTTGGACTACAAATGCTCCCATCCTGCAGATAGAGAAACTAAGGGGCTGTCGAAATCGAAAGCTGTCAAGTAAGGACCAGAGGCGAAACTGTGTTCCAGGCGCGAGGTTCTGTTGCGCCGCACCCAAAAAAGTTGCCAGAGAACCCTTTCTTTGGTGCCAGGACCTCAAACTGACCCACCTCTCTCCCAGGGTGTCTGTGCCGCAGGCGACAGCTAGGCTTAAGGGCAACGCGGAGCAACCTACAGTTAGAATAACTTGGACTCCCAGCCAAAGTCTCACTACAGTCACCCCCGGGAAGATGCATTCTAACGTAGGGCTGTGCTG (double strand) [Cxcl12 promoter 739 bp PCR fragment]” bind?
**A.** Result: binds

For at least one entry, the source does not settle the construct or the ends of the probe.
